Among the data in the supplement of paper PMC10849652 are log2 fold change values, retold here.

The chains behind the UniProt entries cited, without tags or fusion partners. Where a name states a change or a piece, a line headed by the entry shows the natural chain unless it says otherwise.
UniProt O15431: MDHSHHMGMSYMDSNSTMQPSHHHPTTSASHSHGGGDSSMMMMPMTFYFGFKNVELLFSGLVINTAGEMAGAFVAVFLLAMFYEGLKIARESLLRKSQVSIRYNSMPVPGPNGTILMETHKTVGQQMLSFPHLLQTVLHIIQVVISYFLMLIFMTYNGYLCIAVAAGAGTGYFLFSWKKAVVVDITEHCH
UniProt Q9NWH9: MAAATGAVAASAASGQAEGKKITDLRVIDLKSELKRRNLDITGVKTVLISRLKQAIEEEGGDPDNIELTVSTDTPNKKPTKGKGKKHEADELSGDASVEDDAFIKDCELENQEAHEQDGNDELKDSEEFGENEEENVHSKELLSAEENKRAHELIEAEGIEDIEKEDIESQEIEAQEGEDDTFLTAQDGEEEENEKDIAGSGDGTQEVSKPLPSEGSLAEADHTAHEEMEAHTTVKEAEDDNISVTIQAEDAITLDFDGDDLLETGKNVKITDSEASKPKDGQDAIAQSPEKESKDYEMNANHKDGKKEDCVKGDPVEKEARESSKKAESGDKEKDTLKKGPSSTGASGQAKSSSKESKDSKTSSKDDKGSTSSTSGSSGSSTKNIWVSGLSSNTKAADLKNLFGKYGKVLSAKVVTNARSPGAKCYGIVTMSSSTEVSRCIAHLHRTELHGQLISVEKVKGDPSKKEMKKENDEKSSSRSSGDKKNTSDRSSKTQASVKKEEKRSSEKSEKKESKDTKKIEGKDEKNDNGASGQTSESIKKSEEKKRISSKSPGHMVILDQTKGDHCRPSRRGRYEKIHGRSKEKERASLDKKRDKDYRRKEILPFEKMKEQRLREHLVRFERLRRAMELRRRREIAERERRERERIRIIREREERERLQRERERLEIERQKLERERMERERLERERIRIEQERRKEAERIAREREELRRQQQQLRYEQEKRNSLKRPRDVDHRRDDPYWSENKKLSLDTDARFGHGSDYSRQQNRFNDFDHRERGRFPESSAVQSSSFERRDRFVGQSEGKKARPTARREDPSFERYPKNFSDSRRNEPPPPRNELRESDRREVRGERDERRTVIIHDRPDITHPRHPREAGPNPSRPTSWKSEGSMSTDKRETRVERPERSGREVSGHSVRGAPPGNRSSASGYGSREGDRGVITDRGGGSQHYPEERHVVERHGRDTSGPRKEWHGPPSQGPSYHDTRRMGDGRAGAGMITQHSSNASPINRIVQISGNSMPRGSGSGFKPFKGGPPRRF
UniProt Q14BN4: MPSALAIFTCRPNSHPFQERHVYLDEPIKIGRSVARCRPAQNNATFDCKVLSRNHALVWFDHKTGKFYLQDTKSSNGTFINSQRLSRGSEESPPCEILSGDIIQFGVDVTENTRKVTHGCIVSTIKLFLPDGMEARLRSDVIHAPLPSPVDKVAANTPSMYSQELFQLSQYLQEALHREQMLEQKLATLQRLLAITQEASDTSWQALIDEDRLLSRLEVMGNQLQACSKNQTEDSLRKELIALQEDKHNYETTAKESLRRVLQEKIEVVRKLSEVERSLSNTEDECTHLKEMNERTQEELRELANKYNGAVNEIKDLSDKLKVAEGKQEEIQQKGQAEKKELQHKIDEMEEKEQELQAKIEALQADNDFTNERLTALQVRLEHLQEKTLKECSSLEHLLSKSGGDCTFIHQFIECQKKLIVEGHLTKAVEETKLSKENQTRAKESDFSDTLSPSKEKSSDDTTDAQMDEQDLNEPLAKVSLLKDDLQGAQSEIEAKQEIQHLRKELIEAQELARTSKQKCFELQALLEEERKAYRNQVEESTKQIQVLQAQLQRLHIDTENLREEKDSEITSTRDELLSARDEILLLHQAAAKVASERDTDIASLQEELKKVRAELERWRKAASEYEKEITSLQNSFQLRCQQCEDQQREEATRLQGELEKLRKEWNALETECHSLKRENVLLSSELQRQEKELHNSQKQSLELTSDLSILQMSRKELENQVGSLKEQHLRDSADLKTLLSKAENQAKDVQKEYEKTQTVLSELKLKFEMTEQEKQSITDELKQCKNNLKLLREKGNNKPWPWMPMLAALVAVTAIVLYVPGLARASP
UniProt Q6P1K1: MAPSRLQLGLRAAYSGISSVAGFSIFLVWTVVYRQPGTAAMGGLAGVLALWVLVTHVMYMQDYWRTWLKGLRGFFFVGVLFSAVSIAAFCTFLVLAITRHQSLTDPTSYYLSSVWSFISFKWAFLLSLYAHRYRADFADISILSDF
UniProt Q9H2H9: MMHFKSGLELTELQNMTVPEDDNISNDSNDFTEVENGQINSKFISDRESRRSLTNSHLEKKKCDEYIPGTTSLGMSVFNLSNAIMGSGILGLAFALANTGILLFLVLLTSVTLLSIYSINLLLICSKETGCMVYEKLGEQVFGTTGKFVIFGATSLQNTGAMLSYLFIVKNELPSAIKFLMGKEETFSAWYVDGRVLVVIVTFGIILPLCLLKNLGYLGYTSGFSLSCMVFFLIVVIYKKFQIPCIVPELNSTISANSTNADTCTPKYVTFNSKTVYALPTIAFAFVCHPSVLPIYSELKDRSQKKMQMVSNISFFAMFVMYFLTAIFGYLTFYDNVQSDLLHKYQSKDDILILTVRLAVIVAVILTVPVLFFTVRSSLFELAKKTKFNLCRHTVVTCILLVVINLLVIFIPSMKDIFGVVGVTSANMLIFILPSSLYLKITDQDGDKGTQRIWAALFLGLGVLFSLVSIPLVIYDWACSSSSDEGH
UniProt O76082: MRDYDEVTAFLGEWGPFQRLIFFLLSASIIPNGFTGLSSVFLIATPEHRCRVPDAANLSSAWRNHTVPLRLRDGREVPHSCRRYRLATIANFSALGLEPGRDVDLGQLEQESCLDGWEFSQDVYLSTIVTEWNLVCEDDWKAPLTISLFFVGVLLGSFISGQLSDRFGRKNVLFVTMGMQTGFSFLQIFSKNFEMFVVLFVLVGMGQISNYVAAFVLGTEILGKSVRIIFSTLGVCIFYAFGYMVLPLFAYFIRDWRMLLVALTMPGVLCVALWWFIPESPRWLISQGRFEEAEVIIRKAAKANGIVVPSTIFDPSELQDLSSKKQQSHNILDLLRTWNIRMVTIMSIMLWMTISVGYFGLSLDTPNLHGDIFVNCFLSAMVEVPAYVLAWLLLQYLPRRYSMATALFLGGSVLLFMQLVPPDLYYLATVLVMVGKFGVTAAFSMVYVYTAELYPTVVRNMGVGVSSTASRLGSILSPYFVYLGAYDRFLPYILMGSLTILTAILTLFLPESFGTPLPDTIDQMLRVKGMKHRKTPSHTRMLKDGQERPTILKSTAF
UniProt Q9H1U9: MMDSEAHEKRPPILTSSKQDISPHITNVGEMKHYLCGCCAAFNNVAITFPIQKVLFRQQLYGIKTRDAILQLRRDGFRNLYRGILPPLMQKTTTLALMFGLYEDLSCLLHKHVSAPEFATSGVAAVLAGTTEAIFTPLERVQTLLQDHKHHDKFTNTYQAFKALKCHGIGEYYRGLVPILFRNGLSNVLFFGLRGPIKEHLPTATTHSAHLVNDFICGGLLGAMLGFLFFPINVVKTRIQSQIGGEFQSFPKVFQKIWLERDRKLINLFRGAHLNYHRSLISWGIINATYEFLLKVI
UniProt P48029: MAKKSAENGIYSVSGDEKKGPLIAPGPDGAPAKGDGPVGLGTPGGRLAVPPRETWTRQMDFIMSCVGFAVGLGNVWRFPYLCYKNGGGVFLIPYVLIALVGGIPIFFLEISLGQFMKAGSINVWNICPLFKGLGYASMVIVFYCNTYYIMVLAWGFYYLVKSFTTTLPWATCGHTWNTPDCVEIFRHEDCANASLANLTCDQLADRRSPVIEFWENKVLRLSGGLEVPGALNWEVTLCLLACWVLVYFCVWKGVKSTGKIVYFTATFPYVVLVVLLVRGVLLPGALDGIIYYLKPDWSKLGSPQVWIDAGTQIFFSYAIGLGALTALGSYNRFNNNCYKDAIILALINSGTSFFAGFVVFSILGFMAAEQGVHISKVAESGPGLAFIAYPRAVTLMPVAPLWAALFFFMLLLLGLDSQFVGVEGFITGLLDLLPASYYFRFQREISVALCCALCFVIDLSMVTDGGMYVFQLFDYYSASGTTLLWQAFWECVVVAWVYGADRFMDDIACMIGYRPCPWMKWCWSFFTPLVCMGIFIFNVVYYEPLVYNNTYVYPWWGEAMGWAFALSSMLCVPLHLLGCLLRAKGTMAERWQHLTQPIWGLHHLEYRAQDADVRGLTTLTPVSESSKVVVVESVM
UniProt Q9Y6M5: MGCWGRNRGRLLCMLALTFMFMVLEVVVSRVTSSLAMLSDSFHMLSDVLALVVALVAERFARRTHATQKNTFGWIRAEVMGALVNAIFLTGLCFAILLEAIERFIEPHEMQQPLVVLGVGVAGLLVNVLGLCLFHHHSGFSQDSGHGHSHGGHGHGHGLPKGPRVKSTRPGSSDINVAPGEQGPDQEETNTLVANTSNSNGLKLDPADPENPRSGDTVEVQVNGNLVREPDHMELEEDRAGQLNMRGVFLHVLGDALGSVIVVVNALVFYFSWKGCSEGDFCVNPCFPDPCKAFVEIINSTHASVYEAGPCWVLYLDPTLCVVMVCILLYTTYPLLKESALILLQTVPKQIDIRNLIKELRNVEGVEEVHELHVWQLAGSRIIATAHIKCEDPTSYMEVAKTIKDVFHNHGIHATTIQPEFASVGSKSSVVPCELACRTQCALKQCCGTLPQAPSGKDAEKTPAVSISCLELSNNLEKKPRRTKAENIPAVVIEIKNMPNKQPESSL
UniProt O75387: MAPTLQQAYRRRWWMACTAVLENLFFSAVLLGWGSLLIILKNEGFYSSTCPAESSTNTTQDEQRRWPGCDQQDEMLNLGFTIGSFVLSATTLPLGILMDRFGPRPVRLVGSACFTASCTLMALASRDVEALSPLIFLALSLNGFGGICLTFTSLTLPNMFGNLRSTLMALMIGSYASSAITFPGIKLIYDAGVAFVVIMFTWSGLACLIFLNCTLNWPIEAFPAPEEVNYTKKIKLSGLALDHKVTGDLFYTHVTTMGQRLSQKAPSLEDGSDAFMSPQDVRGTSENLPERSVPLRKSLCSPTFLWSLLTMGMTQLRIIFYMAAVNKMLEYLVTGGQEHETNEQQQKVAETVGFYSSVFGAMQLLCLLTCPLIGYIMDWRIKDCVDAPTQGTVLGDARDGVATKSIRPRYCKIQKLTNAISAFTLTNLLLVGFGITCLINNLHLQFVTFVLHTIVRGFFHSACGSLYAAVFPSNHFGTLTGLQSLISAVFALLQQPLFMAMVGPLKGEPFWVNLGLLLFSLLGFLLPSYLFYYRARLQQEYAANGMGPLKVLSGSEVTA
UniProt O00193: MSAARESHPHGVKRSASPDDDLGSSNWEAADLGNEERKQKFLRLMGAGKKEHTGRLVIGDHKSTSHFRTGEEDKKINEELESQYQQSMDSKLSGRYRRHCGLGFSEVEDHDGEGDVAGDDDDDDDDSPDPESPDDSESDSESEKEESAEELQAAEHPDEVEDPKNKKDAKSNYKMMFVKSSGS
UniProt Q9HBR0: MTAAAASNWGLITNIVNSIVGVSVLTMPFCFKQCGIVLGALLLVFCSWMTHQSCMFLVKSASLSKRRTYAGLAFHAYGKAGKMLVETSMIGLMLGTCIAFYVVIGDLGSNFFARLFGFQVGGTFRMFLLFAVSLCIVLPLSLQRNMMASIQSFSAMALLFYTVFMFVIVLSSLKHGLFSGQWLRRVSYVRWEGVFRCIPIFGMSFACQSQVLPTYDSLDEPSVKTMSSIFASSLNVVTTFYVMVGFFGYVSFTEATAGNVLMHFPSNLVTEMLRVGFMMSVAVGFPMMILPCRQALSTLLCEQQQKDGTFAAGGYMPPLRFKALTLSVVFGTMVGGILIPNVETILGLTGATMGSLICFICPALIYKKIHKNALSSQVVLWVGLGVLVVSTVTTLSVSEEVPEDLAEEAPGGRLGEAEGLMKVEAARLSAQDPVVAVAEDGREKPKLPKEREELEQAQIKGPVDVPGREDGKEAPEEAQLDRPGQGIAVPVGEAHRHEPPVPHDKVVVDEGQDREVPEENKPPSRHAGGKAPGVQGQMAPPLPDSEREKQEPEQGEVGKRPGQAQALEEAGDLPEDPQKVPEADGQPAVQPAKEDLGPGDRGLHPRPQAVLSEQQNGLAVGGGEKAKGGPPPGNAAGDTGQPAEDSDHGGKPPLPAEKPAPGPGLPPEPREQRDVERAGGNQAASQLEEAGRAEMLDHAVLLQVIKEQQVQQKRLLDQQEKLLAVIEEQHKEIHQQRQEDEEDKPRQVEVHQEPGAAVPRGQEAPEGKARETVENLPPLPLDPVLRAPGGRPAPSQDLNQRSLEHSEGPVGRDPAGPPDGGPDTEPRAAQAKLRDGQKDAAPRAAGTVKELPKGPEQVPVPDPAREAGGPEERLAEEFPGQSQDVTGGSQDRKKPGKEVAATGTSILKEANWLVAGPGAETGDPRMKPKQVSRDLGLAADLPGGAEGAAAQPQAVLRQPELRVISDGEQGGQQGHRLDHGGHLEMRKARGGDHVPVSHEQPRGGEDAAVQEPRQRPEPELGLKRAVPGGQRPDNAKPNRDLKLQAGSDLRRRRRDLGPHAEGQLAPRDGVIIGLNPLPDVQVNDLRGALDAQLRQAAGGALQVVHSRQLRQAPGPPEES

Some of the results follow.

Compound in the experiment: c1ccc([C@@H]2C[C@H]2NC2CCNCC2)cc1
Put plainly: log2 fold change, soluble protein after heating vs DMSO (PISA); higher = thermal stabilisation; K562 lysate, 10 uM; active = over 0.2 and 3.5 SD of the protein, either way, in both replicates (recomputed). The essentials: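 Soluble protein was defined as the supernatant remaining after 21,000xg for 90 min, following pooling of heated aliquots and adjustment to 0.5% NP-40 at 4°C. Before that, crude K562 extract at 1 mg/mL protein in PBS pH 7.4 with 1 mM MgCl2 was treated with 10 μM compound for 30 min and heated for 3 min across 48°C-58°C. Quantification used TMTpro 16plex LC-MS/MS with channel sums equalised, and values are log-two fold changes in thermal stability relative to solvent controls from duplicates.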
As for SLC35F6 (UniProt Q8N357), the log2 fold change was inactive: 0.077.

In the case of SLC25A30 (UniProt Q5SVS4), the log2 fold change was inactive: -0.006.

SLC31A1 (UniProt O15431): the log2 fold change was inactive: 0.06.

Regarding SLC2A4 (UniProt P14672), the log2 fold change was inactive: -0.029.

Turning to SLC25A15 (UniProt Q9Y619), the log2 fold change was inactive: -0.059.

On to SLTM (UniProt Q9NWH9), for which the log2 fold change is inactive: 0.021.

Turning to SLMAP isoform 3 (UniProt Q14BN4), the log2 fold change was inactive: -0.014.

On to SLC25A25 isoform 3 (UniProt Q6KCM7), for which the log2 fold change is inactive: 0.023.

Take SLC29A2 (UniProt Q14542): the log2 fold change is inactive: -0.233.

As to SLC48A1 (UniProt Q6P1K1), the log2 fold change is inactive: -0.026.

SLC38A1 (UniProt Q9H2H9): the log2 fold change was inactive: -0.128.

Regarding SLC22A5 isoform 3 (UniProt O76082), the log2 fold change was inactive: -0.03.

With SLC35B3 (UniProt Q9H1N7), the log2 fold change is inactive: 0.022.

With SMAP2 (UniProt Q8WU79), the log2 fold change is inactive: 0.02.

Regarding SLU7 (UniProt O95391), the log2 fold change is inactive: -0.16.

With SLC7A2 isoform 3 (UniProt P52569), the log2 fold change is inactive: 0.036.

SLC2A3 (UniProt P11169): the log2 fold change was inactive: 0.001.

On to SLC25A51 (UniProt Q9H1U9), for which the log2 fold change was inactive: 0.056.

For the target SLC25A37 (UniProt Q9NYZ2), the log2 fold change was inactive: -0.043.

SLC25A20 (UniProt O43772): the log2 fold change is inactive: -0.014.

Regarding SLC25A42 (UniProt Q86VD7), the log2 fold change is inactive: -0.003.

For the target SLC26A2 (UniProt P50443), the log2 fold change is inactive: 0.174.

On to SLC25A1 (UniProt P53007), for which the log2 fold change is inactive: 0.054.

SLC25A21 (UniProt Q9BQT8): the log2 fold change was inactive: -0.095.

In the case of SLC25A14 isoform 3 (UniProt O95258), the log2 fold change is inactive: -0.118.

Turning to SLC30A7 (UniProt Q8NEW0), the log2 fold change was inactive: -0.031.

With SLC6A8 (UniProt P48029), the log2 fold change was inactive: -0.147.

Consider SMAD2 (UniProt Q15796), for which the log2 fold change was inactive: 0.

SLC38A9 (UniProt Q8NBW4): the log2 fold change is inactive: 0.139.

For SLC25A40 (UniProt Q8TBP6), the log2 fold change was inactive: 0.173.

For the target SLC25A26 (UniProt Q70HW3), the log2 fold change is inactive: -0.081.

For the target SLC30A1 (UniProt Q9Y6M5), the log2 fold change was inactive: -0.019.

For the target SLC43A1 (UniProt O75387), the log2 fold change was inactive: -0.046.

Take SMAP (UniProt O00193): the log2 fold change is inactive: 0.033.

Consider SLC38A10 (UniProt Q9HBR0), for which the log2 fold change was inactive: -0.04.
